The list shows a part of the results. Shown are side measurements of this screen, not its main read-out; they come without a call. Most of these compounds were active or inconclusive in the main read-out, so they are no random draw. Words in brackets tell the shape of the fitted curve; partial curves, single points and poor fits give uncertain potencies.

The nature of the assay: qHTS Assay to Find Inhibitors of Chronic Active B-Cell Receptor Signaling. The following applies: ABC-DLBCL IkBa-CBG/CBR reporter, luminescence ratio (green luciferase fused to IkBa over red control in TMD8 lymphoma cells), 4 h; measured here: CBR red luminescence, cell number. The source says:
NIH Molecular Libraries Probe Production Network [MLPCN] NIH Chemical Genomics Center [NCGC] MLPCN Grant: 1 R03 DA031086-01A1 PI Name: Dr. R. Eric Davis NCGC Assay Overview: Diffuse large B-cell lymphoma (DLBCL) is the most common category of non-Hodgkin lymphoma, with ~20,000 new cases per year in the United States. DLBCL should be regarded as a collection of different neoplasms. Microarray gene expression analysis has defined two principal types of DLBCL, named for their similarity to normal B cell stages or activation states: a germinal center B-cell (GCB) type, and an activated B-cell (ABC) type. […] Following the addition of doxycycline to induce expression of the luciferases, the green luminescence in control cultures rises only slowly because the CBG fusion partner IkappaBalpha is targeted by IKK activity for rapid degradation. In contrast, green luminescence rises rapidly in the presence of proteasome inhibitors or IKK inhibitors. The rise in red luminescence of CBR is not affected by proteasome or IKK inhibitors, and serves as normalization for cell number and nonspecific effects. […]
NCGC Assay Protocol Summary: Cells were seeded in 1536-well plates at 5000 cells/4uL in IMDM medium containing 0.5% FBS, w/o phenol red, 1% penicillin/streptomycin. […] The plates were measured on a ViewLux plate reader for green luminescence (540/20 nm filter) and red luminescence (618/8 nm filter). […]
For orientation: qHTS replaces the single test concentration by a dilution series.
Regarding `CS(=O)(=O)C1=NSC2=NC(=O)/C(=C\c3ccc(OC(=O)c4ccco4)c(Br)c3)C(=N)N21`, the AC50 was 1.26 µM [falling, full curve].

For `CCc1nnc(NS(=O)(=O)c2ccc(N/C=C(\C=O)c3nc4cc(Cl)ccc4o3)cc2)s1`, the AC50 is 35.5 µM [rising, partial curve, poor fit].

One may read the AC50 as the concentration at which the activity in the assay is half-maximal.

(Values after PubChem BioAssay AID493014 (National Center for Advancing Translational Sciences (NCATS), 2011).)
